The target in the experiment is Neutravidin (UltraLink neutravidin beads, Pierce; neutravidin protein) (UniProt P02701). As to the kind of experiment: Western blot of samples before and after biotinylation and of the supernatant after binding to UltraLink neutravidin beads. On the technique in general: Immunoblotting shows a protein as a band on a membrane.

The chains behind the UniProt entries cited, without tags or fusion partners. Residues count along the entry.
UniProt P02701, residues 25-152: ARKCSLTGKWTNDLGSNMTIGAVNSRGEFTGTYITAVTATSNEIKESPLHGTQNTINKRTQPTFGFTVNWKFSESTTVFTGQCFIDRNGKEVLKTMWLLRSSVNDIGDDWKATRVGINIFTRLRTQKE

Results on two molecules are retold here after patent US20050118646A1.

No constants are given. Whether binding was seen depends on the method and setting. Some entries that bind do so weakly or less than the wild type. Where a sequence is shown, tags or fusion partners need not be part of it.

B1: E25-Tag-only (AviTag-(G4S)2-TEV cleavage site-His6-PrC, no bait), biotinylated (peptide)
chain: MSGLNDIFEAQKIEWHEGAISGGGGSGGGGSGGGGSAENLYFQGSSAHHHHHHGSEDQVDPRLIDGK
modifications: biotin attached to the AviTag (BirA recognition sequence) by BirA in vitro
Regarding B1, the binding result is “binds”.

B2: E24-Tag-only (AviTag-TEV cleavage site-His6-PrC, no bait), biotinylated (peptide)
chain: MSGLNDIFEAQKIEWHEGAISAENLYFQGSSAHHHHHHGSEDQVDPRLIDGK
modifications: biotin attached to the AviTag (BirA recognition sequence) by BirA in vitro
With B2, the binding entry is listed as “binds”.
